Measurements reported in PubChem BioAssay AID1259254 (NCATS, 2017)

- Screen: 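Finding genes that stop cells copying their DNA twice in one cycle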 (primary screen)
- System: human HCT116 colorectal cancer cells
- Knock-down reagent: single siRNA against human genes
- Duration: 3 days
- Measurement: 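Nuclei stained with Hoechst and imaged; cell-cycle phase assigned by DNA content; G2 share scaled per plate, non-targeting siRNA 0%, GMNN siRNA 100%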
- Scale: G2 robust z-score: higher = more G2 cells, more excess DNA replication
- Rule for the call: 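Active siRNAs have a G2 robust z of 5 or more median absolute deviations over the median, which in these data means about 38% or higher of GMNN control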
In all, the deposit lists about 59,000 reagents; this is a random part of them. In the full data, about 1,550 (2.6%) got an active call. 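G2 share is only a proxy for re-replication; each gene was hit by three separate siRNAs, and active genes were retested.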 Not all columns of the deposit are shown. The record does not give: the amount of reagent.

Gene | PubChem SID | G2 robust z-score | Call
AKAP8 | SID160728042 | 5.26 | active
AKAP8 | SID160728043 | -0.0416 | inactive
AKAP8 | SID160728045 | 0.48 | inactive
CNIH3 | SID160758781 | 0.705 | inactive
CNIH3 | SID160758782 | -1.11 | inactive
CNIH3 | SID160758783 | -0.0957 | inactive
SLC18A2 | SID160716967 | 0.16 | inactive
SLC18A2 | SID160716968 | -0.85 | inactive
SLC18A2 | SID160716970 | -0.565 | inactive
RPS21 | SID160716200 | 6.1 | active
RPS21 | SID160724049 | 2.77 | inactive
RPS21 | SID160733724 | 2.02 | inactive
DENND10 | SID160767543 | 1.3 | inactive
DENND10 | SID160767544 | 0.944 | inactive
DENND10 | SID160767546 | 2.67 | inactive
MUC4 | SID160777569 | 3.06 | inactive
MUC4 | SID160777570 | -0.645 | inactive
MUC4 | SID160777571 | -0.406 | inactive
HMG20A | SID160728256 | -0.0349 | inactive
HMG20A | SID160728257 | -0.00221 | inactive
HMG20A | SID160728258 | 4.47 | inactive
GAA | SID160768213 | -0.028 | inactive
GAA | SID160768216 | 1.94 | inactive
GAA | SID160768225 | 1.75 | inactive
DTNBP1 | SID160751643 | -1.08 | inactive
DTNBP1 | SID160751644 | 0.0737 | inactive
DTNBP1 | SID160751645 | 8.34 | active
GLRX3 | SID160728682 | -1.19 | inactive
GLRX3 | SID160728683 | -0.405 | inactive
GLRX3 | SID160728685 | -1.13 | inactive

2 entries from above, set out differently:
HMG20A [SID160728257] | G2 robust z-score = -0.00221; Call = inactive
HMG20A [SID160728258] | G2 robust z-score = 4.47; Call = inactive
